Like-named read-outs stand apart in the source and are kept apart here. No constants are given. Whether binding was seen depends on the method and setting. Binding seen in cells or lysates may run through a third protein. Some binding calls cover weakened binding; strength is not graded here. For part of these data: Tags and fused reporters may be left off the sequences shown.
Assays:
GFP-HS1BP3 (human) [1] = target: T1, GFP-HS1BP3 (human) (UniProt Q53T59); assay: co-IP; GFP, GFP-HS1BP3 or GFP-PLD1 immunoprecipitated from cell lysates by GFP trap (Chromotek); SDS-PAGE and western blotting
T1 sequence: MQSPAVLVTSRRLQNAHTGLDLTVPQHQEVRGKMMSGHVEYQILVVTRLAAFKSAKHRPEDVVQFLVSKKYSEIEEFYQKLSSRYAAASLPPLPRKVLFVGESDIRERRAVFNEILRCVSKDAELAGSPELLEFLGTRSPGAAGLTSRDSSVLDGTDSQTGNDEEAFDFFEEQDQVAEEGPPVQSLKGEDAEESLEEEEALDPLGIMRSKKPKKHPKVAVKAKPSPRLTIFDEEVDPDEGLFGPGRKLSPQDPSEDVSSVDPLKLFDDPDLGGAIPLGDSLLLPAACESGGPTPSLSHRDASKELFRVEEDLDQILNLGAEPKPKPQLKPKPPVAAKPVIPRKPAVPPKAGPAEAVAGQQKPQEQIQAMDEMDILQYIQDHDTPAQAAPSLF

Sequences of proteins named here, by UniProt entry; tags and fusion partners are left off. A change or cut given only in a name is not applied to a line headed by its entry. Residues count along the entry.
UniProt Q14247: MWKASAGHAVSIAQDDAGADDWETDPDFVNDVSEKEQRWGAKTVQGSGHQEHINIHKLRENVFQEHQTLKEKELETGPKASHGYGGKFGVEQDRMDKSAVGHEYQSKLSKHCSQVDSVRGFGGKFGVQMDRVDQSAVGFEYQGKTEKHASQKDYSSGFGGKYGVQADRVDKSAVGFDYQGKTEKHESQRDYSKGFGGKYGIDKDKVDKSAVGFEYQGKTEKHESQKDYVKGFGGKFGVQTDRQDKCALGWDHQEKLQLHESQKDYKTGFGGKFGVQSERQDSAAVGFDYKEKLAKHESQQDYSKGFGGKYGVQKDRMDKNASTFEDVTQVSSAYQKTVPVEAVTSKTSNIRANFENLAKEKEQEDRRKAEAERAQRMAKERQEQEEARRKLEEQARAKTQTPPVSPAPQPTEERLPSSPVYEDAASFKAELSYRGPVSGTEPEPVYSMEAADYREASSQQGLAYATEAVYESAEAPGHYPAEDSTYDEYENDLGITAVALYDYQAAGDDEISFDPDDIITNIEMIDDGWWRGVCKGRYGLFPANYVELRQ
cortactin SH3 domain: residues 492-550 of Q14247
UniProt Q676U5: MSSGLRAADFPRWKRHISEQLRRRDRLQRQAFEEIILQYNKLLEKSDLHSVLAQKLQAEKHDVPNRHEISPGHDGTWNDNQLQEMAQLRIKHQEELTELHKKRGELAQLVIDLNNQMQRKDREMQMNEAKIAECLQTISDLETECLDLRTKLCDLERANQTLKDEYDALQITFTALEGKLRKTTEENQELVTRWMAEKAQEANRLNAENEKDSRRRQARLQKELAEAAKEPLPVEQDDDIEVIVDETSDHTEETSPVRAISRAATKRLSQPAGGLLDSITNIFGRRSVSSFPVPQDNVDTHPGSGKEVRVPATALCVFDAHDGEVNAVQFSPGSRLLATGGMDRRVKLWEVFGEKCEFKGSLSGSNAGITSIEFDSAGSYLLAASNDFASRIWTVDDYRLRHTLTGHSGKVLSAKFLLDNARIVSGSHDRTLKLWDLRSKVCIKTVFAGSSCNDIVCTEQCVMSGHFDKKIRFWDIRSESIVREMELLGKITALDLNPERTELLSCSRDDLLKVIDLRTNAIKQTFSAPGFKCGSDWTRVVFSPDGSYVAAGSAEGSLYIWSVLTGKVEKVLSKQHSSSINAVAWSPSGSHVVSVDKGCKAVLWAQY

GFP-PLD1 = target: T2, GFP-PLD1 (UniProt Q13393); assay: as above
T2 sequence: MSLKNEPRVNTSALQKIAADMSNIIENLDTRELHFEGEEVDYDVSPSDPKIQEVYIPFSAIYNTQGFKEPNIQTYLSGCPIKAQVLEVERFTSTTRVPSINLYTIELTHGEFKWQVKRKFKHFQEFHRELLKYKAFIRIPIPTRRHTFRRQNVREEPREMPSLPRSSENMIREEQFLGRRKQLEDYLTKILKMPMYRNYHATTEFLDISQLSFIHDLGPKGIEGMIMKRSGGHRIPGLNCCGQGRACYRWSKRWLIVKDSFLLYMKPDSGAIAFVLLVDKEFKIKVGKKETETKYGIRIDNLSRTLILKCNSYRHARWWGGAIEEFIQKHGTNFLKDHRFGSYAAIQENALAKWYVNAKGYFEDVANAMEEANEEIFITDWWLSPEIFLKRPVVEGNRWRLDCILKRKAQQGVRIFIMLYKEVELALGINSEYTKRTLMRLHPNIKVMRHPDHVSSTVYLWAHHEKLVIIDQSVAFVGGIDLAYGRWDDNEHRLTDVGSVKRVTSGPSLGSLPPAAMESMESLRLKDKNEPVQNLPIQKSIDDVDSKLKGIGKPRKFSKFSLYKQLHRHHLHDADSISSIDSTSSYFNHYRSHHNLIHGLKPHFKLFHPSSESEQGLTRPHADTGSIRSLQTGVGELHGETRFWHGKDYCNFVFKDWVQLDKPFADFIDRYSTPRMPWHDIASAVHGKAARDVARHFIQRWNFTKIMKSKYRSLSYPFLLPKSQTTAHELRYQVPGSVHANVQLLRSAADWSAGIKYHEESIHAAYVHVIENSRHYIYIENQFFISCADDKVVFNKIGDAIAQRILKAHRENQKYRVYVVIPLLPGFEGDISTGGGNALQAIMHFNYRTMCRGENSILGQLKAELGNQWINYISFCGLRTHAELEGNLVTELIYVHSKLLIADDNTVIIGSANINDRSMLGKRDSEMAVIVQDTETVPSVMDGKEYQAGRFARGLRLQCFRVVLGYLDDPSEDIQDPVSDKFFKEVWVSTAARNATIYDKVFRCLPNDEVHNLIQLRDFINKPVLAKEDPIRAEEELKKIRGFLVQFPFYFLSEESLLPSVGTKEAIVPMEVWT

HS1 SH3 domain = target: T3, HS1 SH3 domain (UniProt P14317); assay: pull-down; taken to be the GST pull-down of the methods (glutathione sepharose, immunoblotting); whether with 1 ug recombinant GST- or MBP-tagged proteins in NETN buffer or from cell lysate is not told for this experiment
T3 sequence: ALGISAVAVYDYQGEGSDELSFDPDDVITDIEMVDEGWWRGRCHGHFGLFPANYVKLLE

cortactin SH3 domain = cortactin SH3 domain (UniProt Q14247); assay: as above
GFP-HS1BP3 (human) [2] = target: T1, GFP-HS1BP3 (human); assay: co-IP; GFP, GFP-HS1BP3 or GFP-PLD1 immunoprecipitated from cell lysates by GFP trap (Chromotek); SDS-PAGE and western blotting; remark: listed apart in the source

Molecule: cortactin (endogenous) (from UniProt Q14247 1-550)
- binding (GFP-HS1BP3 (human) [1]): binds

Molecule: ATG16L1 (over-expressed or endogenous) (from UniProt Q676U5 1-607)
- binding (GFP-HS1BP3 (human) [1]): no binding
- binding (GFP-PLD1): no binding

B1: HS1BP3 (construct of the SH3 domain interaction assay, Supplementary Fig. 3b) (protein, UniProt Q53T59 1-392)
chain: MQSPAVLVTSRRLQNAHTGLDLTVPQHQEVRGKMMSGHVEYQILVVTRLAAFKSAKHRPEDVVQFLVSKKYSEIEEFYQKLSSRYAAASLPPLPRKVLFVGESDIRERRAVFNEILRCVSKDAELAGSPELLEFLGTRSPGAAGLTSRDSSVLDGTDSQTGNDEEAFDFFEEQDQVAEEGPPVQSLKGEDAEESLEEEEALDPLGIMRSKKPKKHPKVAVKAKPSPRLTIFDEEVDPDEGLFGPGRKLSPQDPSEDVSSVDPLKLFDDPDLGGAIPLGDSLLLPAACESGGPTPSLSHRDASKELFRVEEDLDQILNLGAEPKPKPQLKPKPPVAAKPVIPRKPAVPPKAGPAEAVAGQQKPQEQIQAMDEMDILQYIQDHDTPAQAAPSLF
- binding (HS1 SH3 domain): binds
- binding (cortactin SH3 domain): binds

B2: PLD1 (over-expressed or endogenous) (enzyme, UniProt Q13393 1-1074)
chain: MSLKNEPRVNTSALQKIAADMSNIIENLDTRELHFEGEEVDYDVSPSDPKIQEVYIPFSAIYNTQGFKEPNIQTYLSGCPIKAQVLEVERFTSTTRVPSINLYTIELTHGEFKWQVKRKFKHFQEFHRELLKYKAFIRIPIPTRRHTFRRQNVREEPREMPSLPRSSENMIREEQFLGRRKQLEDYLTKILKMPMYRNYHATTEFLDISQLSFIHDLGPKGIEGMIMKRSGGHRIPGLNCCGQGRACYRWSKRWLIVKDSFLLYMKPDSGAIAFVLLVDKEFKIKVGKKETETKYGIRIDNLSRTLILKCNSYRHARWWGGAIEEFIQKHGTNFLKDHRFGSYAAIQENALAKWYVNAKGYFEDVANAMEEANEEIFITDWWLSPEIFLKRPVVEGNRWRLDCILKRKAQQGVRIFIMLYKEVELALGINSEYTKRTLMRLHPNIKVMRHPDHVSSTVYLWAHHEKLVIIDQSVAFVGGIDLAYGRWDDNEHRLTDVGSVKRVTSGPSLGSLPPAAMESMESLRLKDKNEPVQNLPIQKSIDDVDSKLKGIGKPRKFSKFSLYKQLHRHHLHDADSISSIDSTSSYFNHYRSHHNLIHGLKPHFKLFHPSSESEQGLTRPHADTGSIRSLQTGVGELHGETRFWHGKDYCNFVFKDWVQLDKPFADFIDRYSTPRMPWHDIASAVHGKAARDVARHFIQRWNFTKIMKSKYRSLSYPFLLPKSQTTAHELRYQVPGSVHANVQLLRSAADWSAGIKYHEESIHAAYVHVIENSRHYIYIENQFFISCADDKVVFNKIGDAIAQRILKAHRENQKYRVYVVIPLLPGFEGDISTGGGNALQAIMHFNYRTMCRGENSILGQLKAELGNQWINYISFCGLRTHAELEGNLVTELIYVHSKLLIADDNTVIIGSANINDRSMLGKRDSEMAVIVQDTETVPSVMDGKEYQAGRFARGLRLQCFRVVLGYLDDPSEDIQDPVSDKFFKEVWVSTAARNATIYDKVFRCLPNDEVHNLIQLRDFINKPVLAKEDPIRAEEELKKIRGFLVQFPFYFLSEESLLPSVGTKEAIVPMEVWT
- binding (GFP-HS1BP3 (human) [2]): no binding

Reference: publication PMC5412012, “HS1BP3 negatively regulates autophagy by modulation of phosphatidic acid levels” (Nature Communications, 2016)
